# In PubChem BioAssay AID1671190 (National Center for Advancing Translational Sciences (NCATS), 2021):
# The chains behind the UniProt entries cited, without tags or fusion partners. Where a name states a change or a piece, a line headed by the entry shows the natural chain unless it says otherwise.
# UniProt P18054: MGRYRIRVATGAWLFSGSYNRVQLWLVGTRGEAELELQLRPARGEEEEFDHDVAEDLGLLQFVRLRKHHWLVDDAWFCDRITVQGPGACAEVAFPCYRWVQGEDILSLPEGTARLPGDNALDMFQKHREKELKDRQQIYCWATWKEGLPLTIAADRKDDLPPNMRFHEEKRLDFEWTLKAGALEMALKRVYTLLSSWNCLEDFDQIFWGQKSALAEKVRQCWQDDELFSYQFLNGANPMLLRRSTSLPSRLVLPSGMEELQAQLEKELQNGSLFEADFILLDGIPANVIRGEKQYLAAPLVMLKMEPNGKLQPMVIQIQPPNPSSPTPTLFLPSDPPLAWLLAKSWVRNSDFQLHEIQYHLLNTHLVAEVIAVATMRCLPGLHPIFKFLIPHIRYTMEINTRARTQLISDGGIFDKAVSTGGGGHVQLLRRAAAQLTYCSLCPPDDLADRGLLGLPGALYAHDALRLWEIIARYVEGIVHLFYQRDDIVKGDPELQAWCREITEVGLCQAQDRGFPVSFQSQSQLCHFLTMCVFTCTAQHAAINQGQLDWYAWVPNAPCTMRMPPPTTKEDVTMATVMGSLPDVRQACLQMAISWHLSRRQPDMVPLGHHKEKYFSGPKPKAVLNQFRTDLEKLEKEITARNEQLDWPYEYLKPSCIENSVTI
# Among all 580,000 compounds or so, about 6,100 (1.1%) were called active. Inconclusive results, whose numbers are uncertain, are shown with a selection of clear calls. Calls follow the shape of the dose curve; as a rule, active = well fitted inhibition curve with a large enough effect; inconclusive = small, poorly fitted or top-dose-only effect, or another doubt; inactive = no such curve, though single readings can be large or run the other way. Potencies beside an inconclusive call are fits to weak or partial responses and may not hold up.
# Molecular target: Polyunsaturated fatty acid lipoxygenase ALOX12 (Homo sapiens) (UniProt P18054)
# Experiment: Primary qHTS assay for inhibitors of human arachidonate 12S-lipoxygenase (ALOX12): Round 2
# Conditions: purified 12hLO, xylenol orange hydroperoxide absorbance; activity change, negative = inhibition: at 108 µM (top of the series) unless noted
# Procedure, shortened: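 Hydroperoxide product was detected by ferrous iron/xylenol orange as the 573 to 405 nm absorbance ratio. Arachidonic acid at 40 uM (final) was turned over for 30 min at room temperature by 150 nM human 12hLO, pH 7.0 Hepes buffer, after 15 min compound preincubation.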
# % is scaled to controls: 0 for no effect and ±100 for the full control effect; potency is read from the fitted curve at half-maximal effect.
Structure (SMILES),Potency,"activity change, negative = inhibition"
CCOc1ccccc1CN1CCC2(CCN(C(=O)Nc3ccc(Cl)cc3)CC2)Oc2ccccc21,"inconclusive: 28.2 µM [inhibitor, full curve, poor fit]",–
O=C(CSc1ccc([N+](=O)[O-])cc1)Nc1cccc(S(=O)(=O)N2CCOCC2)c1,–,inactive: 155%
CCCCNC(=O)CC1N=C2c3ccccc3N=C(SCC(=O)Nc3ccc(OC)cc3)N2C1=O (centres undefined),–,inactive: 0%
C[N+](C)(C)CCN1CCc2ccccc21,"inconclusive: 35.5 µM [inhibitor, partial curve, poor fit]",–
O=[N+]([O-])c1cc(/C=N/N2CCOCC2)cs1,–,inactive: -6.39%
COC(=O)/C(=C\C(C#N)=C/N(C)C)C(C)=O,"inconclusive: 39.8 µM [inhibitor, partial curve, poor fit]",–
Cc1ccc(C(c2c[nH]c3ccccc23)N(C)C(=O)C(C)C)cc1 (centres undefined),"inconclusive: 44.7 µM [inhibitor, partial curve, poor fit]",–
CCOC(=O)C1(CCOc2ccccc2)CCN(Cc2ccc(OCC)c(CO)c2)CC1,–,inactive: -18.2%
CCn1c(C)cc(/C=C(\C#N)c2ccc(Br)cc2)c1C,"inconclusive: 44.7 µM [inhibitor, partial curve, poor fit]",–
CCNC(=O)C1CCN(Cc2cc3ccccc3n2Cc2ccc(C)cc2)CC1,"inconclusive: 50.1 µM [inhibitor, partial curve]",–
O=C(N[C@H]1C[C@H]2C(=O)NC[C@@H](CCC(=O)N3CCCC3)N2C1)c1cccs1,"inconclusive: 44.7 µM [inhibitor, single point]",–
COC(=O)N/N=C1\CCCc2ccccc21,–,inactive: -19.4%
N#CC(C#N)=C1c2cc(S(=O)(=O)NCCO)ccc2-c2ccc(S(=O)(=O)NCCO)cc21,"inconclusive: 44.7 µM [inhibitor, partial curve, poor fit]",–
COc1ccc(CNC(=O)CN(C(=O)c2csnn2)c2ccc(F)cc2)cc1,–,inconclusive: -30.2% [inhibitor]
COc1cc(C2C(C#N)=C(N)Oc3c2oc(CO)cc3=O)cc(OC)c1OC (centres undefined),"inconclusive: 5.01 µM [inhibitor, full curve, poor fit]",–
CC(=O)N1Cc2ccccc2CC2(CCN(CCc3ccccc3)C2)C1 (centres undefined),–,inactive: 0.0299% [at 6.33 µM]
COc1ccc(NC(=O)Cn2c3ccccc3c3nc4n(c(=O)c32)CCS4)cc1,–,inactive: 4.4%
Cc1ccccc1NC(=O)C1(N(C)C(=O)Cc2nc(N)n[nH]2)CCCCC1,–,inactive: 2.76%
C=C(C)Cn1c2ccc(NC(=O)CCc3cccnc3)cc2c(=O)n1C,"inconclusive: 39.8 µM [inhibitor, partial curve, poor fit]",–
